Experimental data published in the supplement of paper PMC10849652.
This is one part of the list.

Protein sequences, listed by entry. Tags and fused reporters are not part of them. Lines headed by an entry give the natural chain unless they say otherwise; changes in a name come on top.
UniProt P61970, whole entry, looked up: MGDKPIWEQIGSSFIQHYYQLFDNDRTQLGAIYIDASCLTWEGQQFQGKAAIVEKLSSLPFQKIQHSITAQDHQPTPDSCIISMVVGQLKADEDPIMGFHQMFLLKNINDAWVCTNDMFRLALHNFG
UniProt Q9H813: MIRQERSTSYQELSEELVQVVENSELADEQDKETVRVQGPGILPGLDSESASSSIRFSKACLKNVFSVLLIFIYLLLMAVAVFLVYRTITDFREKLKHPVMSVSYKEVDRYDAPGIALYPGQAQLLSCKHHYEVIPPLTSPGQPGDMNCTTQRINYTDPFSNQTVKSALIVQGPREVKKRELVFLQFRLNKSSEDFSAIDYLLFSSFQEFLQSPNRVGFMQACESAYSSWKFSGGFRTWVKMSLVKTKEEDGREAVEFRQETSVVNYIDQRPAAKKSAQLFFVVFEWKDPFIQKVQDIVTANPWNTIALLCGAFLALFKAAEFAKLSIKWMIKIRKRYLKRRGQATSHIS
UniProt Q8WZ82: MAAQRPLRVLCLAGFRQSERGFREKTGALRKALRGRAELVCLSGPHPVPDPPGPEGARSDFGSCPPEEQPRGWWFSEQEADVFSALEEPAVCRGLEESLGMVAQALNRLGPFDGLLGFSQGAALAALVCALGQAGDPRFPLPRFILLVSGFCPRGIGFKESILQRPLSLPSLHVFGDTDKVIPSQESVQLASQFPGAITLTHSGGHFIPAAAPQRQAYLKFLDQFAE
UniProt Q13310, whole entry, looked up: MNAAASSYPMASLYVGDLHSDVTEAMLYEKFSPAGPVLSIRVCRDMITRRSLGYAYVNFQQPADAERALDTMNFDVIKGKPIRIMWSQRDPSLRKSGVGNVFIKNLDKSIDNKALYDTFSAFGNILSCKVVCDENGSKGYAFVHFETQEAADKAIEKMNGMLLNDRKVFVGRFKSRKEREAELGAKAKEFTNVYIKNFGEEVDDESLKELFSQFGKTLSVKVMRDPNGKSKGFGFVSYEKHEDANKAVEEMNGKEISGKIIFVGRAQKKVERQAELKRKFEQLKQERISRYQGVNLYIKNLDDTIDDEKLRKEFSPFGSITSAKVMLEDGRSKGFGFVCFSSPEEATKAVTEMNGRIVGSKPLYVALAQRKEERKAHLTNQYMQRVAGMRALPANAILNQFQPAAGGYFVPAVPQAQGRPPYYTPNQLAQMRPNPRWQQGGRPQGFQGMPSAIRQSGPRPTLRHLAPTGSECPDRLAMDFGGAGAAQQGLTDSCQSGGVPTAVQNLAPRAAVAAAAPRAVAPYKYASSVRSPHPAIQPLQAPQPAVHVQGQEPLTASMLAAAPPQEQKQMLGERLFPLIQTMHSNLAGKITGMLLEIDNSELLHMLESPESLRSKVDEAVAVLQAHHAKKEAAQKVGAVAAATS
UniProt Q9NTK5, whole entry, looked up: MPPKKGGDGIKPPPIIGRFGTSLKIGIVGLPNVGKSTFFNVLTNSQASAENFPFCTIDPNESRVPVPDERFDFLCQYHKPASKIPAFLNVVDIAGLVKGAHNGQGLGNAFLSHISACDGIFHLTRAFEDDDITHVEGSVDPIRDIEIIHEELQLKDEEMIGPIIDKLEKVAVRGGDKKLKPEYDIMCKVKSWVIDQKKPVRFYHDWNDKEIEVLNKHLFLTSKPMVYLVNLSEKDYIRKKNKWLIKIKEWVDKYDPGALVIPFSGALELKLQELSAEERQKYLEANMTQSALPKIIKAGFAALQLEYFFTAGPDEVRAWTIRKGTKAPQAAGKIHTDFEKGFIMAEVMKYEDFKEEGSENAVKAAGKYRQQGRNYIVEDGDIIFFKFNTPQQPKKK
UniProt O15381: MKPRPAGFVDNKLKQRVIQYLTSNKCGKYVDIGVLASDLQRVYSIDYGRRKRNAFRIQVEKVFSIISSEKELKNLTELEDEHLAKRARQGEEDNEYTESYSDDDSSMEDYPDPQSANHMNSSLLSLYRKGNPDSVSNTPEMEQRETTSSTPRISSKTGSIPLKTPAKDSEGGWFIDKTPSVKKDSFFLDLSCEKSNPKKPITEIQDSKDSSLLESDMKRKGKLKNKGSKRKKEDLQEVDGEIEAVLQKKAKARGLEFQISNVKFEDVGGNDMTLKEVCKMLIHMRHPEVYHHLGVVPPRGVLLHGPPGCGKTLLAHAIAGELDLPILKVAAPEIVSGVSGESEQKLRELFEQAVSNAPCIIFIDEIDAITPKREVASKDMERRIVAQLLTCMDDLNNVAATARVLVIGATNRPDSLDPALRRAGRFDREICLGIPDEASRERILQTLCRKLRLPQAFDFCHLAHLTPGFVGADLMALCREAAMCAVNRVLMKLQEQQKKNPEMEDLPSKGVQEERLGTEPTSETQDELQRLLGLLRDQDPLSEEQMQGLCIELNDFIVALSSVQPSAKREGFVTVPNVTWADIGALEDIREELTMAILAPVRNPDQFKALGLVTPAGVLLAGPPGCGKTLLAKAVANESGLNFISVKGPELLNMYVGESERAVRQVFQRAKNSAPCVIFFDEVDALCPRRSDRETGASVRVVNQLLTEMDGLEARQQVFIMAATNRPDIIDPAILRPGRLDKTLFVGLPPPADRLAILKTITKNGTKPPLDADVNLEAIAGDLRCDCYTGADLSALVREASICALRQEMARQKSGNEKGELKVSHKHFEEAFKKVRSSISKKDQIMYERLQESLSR
UniProt Q9NVE7: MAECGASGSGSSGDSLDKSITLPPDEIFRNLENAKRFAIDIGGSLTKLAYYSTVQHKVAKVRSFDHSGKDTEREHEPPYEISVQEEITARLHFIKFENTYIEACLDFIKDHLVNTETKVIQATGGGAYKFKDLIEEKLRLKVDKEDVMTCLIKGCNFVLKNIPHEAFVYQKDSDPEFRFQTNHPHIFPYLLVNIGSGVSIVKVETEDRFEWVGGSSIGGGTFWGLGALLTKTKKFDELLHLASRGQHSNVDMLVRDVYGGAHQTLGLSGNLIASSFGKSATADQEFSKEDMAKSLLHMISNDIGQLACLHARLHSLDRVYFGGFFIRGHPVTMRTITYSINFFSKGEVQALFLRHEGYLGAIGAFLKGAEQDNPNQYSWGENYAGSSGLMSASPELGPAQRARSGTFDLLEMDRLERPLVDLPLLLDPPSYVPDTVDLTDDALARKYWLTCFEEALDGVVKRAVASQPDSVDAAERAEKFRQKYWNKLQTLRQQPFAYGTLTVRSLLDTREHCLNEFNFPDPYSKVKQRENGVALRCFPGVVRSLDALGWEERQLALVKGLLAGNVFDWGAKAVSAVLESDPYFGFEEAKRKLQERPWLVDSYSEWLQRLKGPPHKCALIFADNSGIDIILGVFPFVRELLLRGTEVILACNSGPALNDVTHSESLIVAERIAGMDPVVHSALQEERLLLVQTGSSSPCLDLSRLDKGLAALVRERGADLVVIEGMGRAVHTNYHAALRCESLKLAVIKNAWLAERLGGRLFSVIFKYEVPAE
UniProt Q9UBD5: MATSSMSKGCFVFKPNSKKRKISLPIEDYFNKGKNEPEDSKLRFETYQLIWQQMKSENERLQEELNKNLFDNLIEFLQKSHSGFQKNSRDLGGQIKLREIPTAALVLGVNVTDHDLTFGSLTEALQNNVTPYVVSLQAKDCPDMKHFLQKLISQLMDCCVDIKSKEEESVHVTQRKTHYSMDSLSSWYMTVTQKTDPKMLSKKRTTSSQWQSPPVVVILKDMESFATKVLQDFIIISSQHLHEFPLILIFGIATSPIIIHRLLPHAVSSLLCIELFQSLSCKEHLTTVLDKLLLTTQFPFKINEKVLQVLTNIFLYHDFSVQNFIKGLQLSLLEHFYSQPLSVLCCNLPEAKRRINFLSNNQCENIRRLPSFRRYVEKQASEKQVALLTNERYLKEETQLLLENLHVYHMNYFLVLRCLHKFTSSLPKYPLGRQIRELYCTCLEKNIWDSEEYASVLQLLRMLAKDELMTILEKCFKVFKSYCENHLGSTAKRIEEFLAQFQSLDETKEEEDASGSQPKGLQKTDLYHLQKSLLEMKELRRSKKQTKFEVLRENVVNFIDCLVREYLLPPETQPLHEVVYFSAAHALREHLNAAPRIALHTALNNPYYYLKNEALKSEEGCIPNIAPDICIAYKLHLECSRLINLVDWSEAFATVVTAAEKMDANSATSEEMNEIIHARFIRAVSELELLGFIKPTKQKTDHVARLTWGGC
UniProt P04181: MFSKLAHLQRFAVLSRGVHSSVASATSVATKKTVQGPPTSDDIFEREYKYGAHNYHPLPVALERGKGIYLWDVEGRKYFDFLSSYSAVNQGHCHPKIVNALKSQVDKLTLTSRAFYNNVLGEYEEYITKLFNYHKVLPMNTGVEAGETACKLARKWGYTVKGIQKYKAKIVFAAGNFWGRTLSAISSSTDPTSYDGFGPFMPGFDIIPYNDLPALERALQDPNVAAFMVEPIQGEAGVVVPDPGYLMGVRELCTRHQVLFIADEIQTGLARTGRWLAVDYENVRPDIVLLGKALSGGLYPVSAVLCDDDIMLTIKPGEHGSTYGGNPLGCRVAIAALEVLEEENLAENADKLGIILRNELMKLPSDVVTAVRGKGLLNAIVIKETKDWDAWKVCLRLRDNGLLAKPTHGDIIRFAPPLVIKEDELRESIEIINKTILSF
UniProt P68402: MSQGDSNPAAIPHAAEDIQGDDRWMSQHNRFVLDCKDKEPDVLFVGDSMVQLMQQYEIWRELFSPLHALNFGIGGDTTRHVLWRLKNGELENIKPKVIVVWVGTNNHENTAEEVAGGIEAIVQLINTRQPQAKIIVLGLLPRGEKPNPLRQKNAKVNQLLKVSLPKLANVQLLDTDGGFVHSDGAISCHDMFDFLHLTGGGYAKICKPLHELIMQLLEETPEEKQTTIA
UniProt Q32P28: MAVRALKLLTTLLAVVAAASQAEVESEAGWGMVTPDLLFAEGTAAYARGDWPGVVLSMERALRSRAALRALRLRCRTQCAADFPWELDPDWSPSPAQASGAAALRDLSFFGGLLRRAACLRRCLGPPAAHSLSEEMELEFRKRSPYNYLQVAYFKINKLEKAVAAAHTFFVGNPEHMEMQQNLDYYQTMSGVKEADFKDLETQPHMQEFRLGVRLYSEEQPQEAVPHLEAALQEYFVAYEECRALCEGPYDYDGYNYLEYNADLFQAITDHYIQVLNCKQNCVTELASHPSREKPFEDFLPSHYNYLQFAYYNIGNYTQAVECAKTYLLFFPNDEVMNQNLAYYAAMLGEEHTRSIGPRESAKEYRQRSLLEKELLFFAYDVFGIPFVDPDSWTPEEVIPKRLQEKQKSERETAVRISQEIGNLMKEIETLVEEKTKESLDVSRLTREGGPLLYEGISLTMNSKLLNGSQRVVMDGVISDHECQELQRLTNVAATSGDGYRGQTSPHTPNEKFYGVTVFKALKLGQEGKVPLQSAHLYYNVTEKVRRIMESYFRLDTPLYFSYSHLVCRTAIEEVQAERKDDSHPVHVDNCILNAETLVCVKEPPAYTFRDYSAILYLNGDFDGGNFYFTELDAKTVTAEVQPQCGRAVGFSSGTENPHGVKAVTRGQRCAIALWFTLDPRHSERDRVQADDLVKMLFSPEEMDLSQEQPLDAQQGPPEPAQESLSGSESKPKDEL
UniProt O43929: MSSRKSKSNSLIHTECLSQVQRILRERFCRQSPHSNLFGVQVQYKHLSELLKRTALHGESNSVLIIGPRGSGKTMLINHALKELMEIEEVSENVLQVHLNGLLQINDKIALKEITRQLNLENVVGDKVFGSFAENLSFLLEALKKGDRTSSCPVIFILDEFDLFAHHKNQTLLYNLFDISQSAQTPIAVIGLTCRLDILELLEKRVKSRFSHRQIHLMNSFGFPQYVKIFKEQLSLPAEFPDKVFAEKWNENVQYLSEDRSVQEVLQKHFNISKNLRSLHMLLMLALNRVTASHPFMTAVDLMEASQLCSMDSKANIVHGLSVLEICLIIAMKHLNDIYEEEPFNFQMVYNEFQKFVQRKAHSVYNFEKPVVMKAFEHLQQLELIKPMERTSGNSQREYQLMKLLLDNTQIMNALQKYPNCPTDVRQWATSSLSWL
UniProt Q13177, whole entry, looked up: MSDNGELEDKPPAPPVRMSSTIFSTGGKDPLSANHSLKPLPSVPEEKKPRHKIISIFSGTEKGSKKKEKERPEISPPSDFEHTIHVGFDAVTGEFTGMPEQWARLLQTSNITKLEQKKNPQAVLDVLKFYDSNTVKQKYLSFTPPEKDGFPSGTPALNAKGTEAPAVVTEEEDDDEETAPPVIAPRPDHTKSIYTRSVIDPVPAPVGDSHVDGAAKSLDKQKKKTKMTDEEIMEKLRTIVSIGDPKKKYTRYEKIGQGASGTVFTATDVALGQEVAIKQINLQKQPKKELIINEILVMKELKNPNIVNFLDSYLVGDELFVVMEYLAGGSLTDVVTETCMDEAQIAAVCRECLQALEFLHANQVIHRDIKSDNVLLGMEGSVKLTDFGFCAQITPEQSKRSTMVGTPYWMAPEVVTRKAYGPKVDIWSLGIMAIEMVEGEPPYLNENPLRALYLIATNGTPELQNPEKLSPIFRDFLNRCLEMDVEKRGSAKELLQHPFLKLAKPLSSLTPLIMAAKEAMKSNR
UniProt Q9Y530: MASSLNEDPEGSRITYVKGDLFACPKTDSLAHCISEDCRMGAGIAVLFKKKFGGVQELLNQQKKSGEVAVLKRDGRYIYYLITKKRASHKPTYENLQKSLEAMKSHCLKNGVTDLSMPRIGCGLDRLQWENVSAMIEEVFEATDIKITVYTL

Key:
Test in all cases: log2 fold change, soluble protein after heating vs DMSO (PISA); higher = thermal stabilisation; K562 lysate, 10 uM; active = over 0.2 and 3.5 SD of the protein, either way, in both replicates (recomputed)
nilotinib = compound: Cc1cn(-c2cc(NC(=O)c3ccc(C)c(Nc4nccc(-c5cccnc5)n4)c3)cc(C(F)(F)F)c2)cn1 [nilotinib]
How it was run: (§1)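 Values give the log-two fold change in thermal stability against solvent controls, from duplicates. Crude K562 extract at 1 mg/mL protein, made by dounce homogenisation in PBS pH 7.4 with 1 mM MgCl2, was treated with 10 μM compound for 30 min. After 3 min heating across 48°C-58°C, aliquots were pooled, adjusted to 0.5% NP-40 at 4°C and centrifuged at 21,000xg for 90 min. The supernatant was measured by TMTpro 16plex LC-MS/MS with channel sums equalised.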

[1] = compound: Cc1nc(Nc2n[nH]c3c2CN(C(=O)N[C@H](CN(C)C)c2ccccc2)C3(C)C)c2sccc2n1
How it was run: as §1

dasatinib = compound: Cc1nc(Nc2ncc(C(=O)Nc3c(C)cccc3Cl)s2)cc(N2CCN(CCO)CC2)n1 [dasatinib]
How it was run: as §1

[2] = compound: Cc1ncc(-c2ccnc(Nc3ccc(S(C)(=O)=O)cc3)n2)n1C(C)C
How it was run: as §1

[3] = compound: Cn1cc(-c2ccc3c(c2)CCN3C(=O)Cc2cccc(C(F)(F)F)c2)c2c(N)ncnc21
How it was run: as §1

quisinostat = compound: Cn1cc(CNCC2CCN(c3ncc(C(=O)NO)cn3)CC2)c2ccccc21 [quisinostat]
How it was run: as §1

tipifarnib = compound: Cn1cncc1[C@@](N)(c1ccc(Cl)cc1)c1ccc2c(c1)c(-c1cccc(Cl)c1)cc(=O)n2C [tipifarnib]
How it was run: as §1

[4] = compound: NC(=O)Nc1cc(-c2cccc(F)c2)sc1C(=O)N[C@H]1CCCNC1
How it was run: as §1

[5] = compound: NC(=O)c1cnc(N[C@@H]2CCCC[C@@H]2N)nc1Nc1cccc(-n2nccn2)c1
How it was run: as §1

[6] = compound: NC1(c2ccc(-c3nc4ccn5c(=O)[nH]nc5c4cc3-c3ccccc3)cc2)CCC1
How it was run: as §1

[7] = compound: NCC(=O)Nc1ccc(-n2nc(C(F)(F)F)cc2-c2ccc3c(ccc4ccccc43)c2)cc1
How it was run: as §1

vorinostat = compound: O=C(CCCCCCC(=O)Nc1ccccc1)NO [vorinostat]
How it was run: as §1

silmitasertib = compound: O=C(O)c1ccc2c(c1)nc(Nc1cccc(Cl)c1)c1ccncc12 [silmitasertib]
How it was run: as §1

[8] = compound: O=C1NC(=O)C(c2cnc3ccccn23)=C1c1cn2c3c(cc(F)cc13)CN(C(=O)N1CCCCC1)CC2
How it was run: as §1

entospletinib = compound: c1cn2cc(-c3ccc4cn[nH]c4c3)nc(Nc3ccc(N4CCOCC4)cc3)c2n1 [entospletinib]
How it was run: as §1

Measured: log2 fold change

NUTF2 (UniProt P61970)
inactive: nilotinib 0.024 | [1] -0.016 | dasatinib -0.017 | [2] -0.004 | [3] 0.041 | quisinostat 0.034 | tipifarnib 0.042 | [4] -0.005 | [5] -0.093 | [6] 0.037 | [7] -0.133 | vorinostat 0.118 | silmitasertib 0.002 | [8] 0.03 | entospletinib -0.003

OSBP2 (UniProt Q969R2)
inactive: nilotinib -0.053 | [1] -0.038 | dasatinib -0.089 | [2] -0.025 | [3] -0.002 | quisinostat -0.184 | tipifarnib -0.053 | [4] 0.052 | [5] 0.075 | [6] 0.026 | [7] 0.025 | vorinostat 0.055 | silmitasertib -0.147 | [8] 0.023 | entospletinib -0.102

PACC1 (UniProt Q9H813)
inactive: nilotinib -0.02 | [1] -0.108 | dasatinib 0.219 | [2] 0.086 | [3] -0.047 | quisinostat -0.045 | tipifarnib 0.049 | [4] 0.005 | [5] 0.084 | [6] 0.023 | [7] 0.034 | vorinostat 0.157 | silmitasertib -0.08 | [8] 0.023 | entospletinib -0.093

PAIP1 (UniProt Q9H074)
inactive: nilotinib 0.01 | [1] -0.006 | dasatinib 0.067 | [2] 0.016 | [3] 0.054 | quisinostat 0.054 | tipifarnib 0.004 | [4] -0.041 | [5] -0.017 | [6] -0.001 | [7] -0.018 | vorinostat 0.254 | silmitasertib -0.047 | [8] 0.007 | entospletinib -0.003

PALM3 (UniProt A6NDB9)
inactive: nilotinib -0.02 | [1] 0.029 | dasatinib 0.031 | [2] 0.073 | [3] -0.004 | quisinostat 0.024 | tipifarnib -0.033 | [4] 0.003 | [5] 0.033 | [6] 0.008 | [7] 0.02 | vorinostat 0.153 | silmitasertib 0.05 | [8] 0.021 | entospletinib -0.009

PAPOLA (UniProt P51003)
inactive: nilotinib -0.019 | [1] -0.011 | dasatinib -0.009 | [2] -0.043 | [3] 0.019 | quisinostat 0.023 | tipifarnib 0.003 | [4] -0.018 | [5] 0.003 | [6] -0.025 | [7] 0.028 | vorinostat -0.005 | silmitasertib -0.011 | [8] -0.054 | entospletinib 0.006

OVCA2 (UniProt Q8WZ82)
inactive: nilotinib 0.019 | [1] 0 | dasatinib -0.058 | [2] -0.054 | [3] -0.12 | quisinostat 0.023 | tipifarnib 0.077 | [4] -0.022 | [5] 0.075 | [6] -0.015 | [7] 0.129 | vorinostat -0.035 | silmitasertib 0.021 | [8] -0.003 | entospletinib 0.048

OXA1L (UniProt Q15070)
inactive: nilotinib -0.007 | [1] -0.019 | dasatinib 0.01 | [2] 0.056 | [3] -0.009 | quisinostat 0.027 | tipifarnib -0.025 | [4] 0 | [5] 0.011 | [6] -0.01 | [7] -0.043 | vorinostat 0.06 | silmitasertib 0.017 | [8] -0.002 | entospletinib -0.003

PABPC4 isoform 3 (UniProt Q13310)
inactive: nilotinib -0.006 | [1] -0.01 | dasatinib -0.007 | [2] -0.009 | [3] 0.013 | quisinostat 0.098 | tipifarnib 0.049 | [4] -0.01 | [5] 0 | [6] 0.004 | [7] 0.009 | vorinostat 0.002 | silmitasertib -0.012 | [8] 0.011 | entospletinib -0.002

OLA1 (UniProt Q9NTK5)
active: vorinostat -0.31
inactive: nilotinib 0.001 | [1] -0.009 | dasatinib -0.023 | [2] 0.006 | [3] 0.018 | quisinostat -0.008 | tipifarnib 0.018 | [4] 0.022 | [5] -0.006 | [6] 0.025 | [7] 0.03 | silmitasertib 0.041 | [8] 0.004 | entospletinib 0.043

NVL (UniProt O15381)
inactive: nilotinib -0.078 | [1] -0.044 | dasatinib -0.047 | [2] 0.043 | [3] 0.007 | quisinostat -0.099 | tipifarnib 0.034 | [4] 0.025 | [5] -0.033 | [6] 0.031 | [7] 0.119 | vorinostat -0.122 | silmitasertib 0.091 | [8] 0.001

PANK4 (UniProt Q9NVE7)
active: vorinostat -0.423
inactive: nilotinib 0.028 | [1] -0.006 | dasatinib -0.086 | [2] -0.006 | [3] 0.003 | quisinostat -0.054 | tipifarnib 0.009 | [4] 0.038 | [5] -0.003 | [6] -0.045 | [7] 0.012 | silmitasertib -0.03 | [8] 0.055 | entospletinib 0.035

ORC3 isoform 2 (UniProt Q9UBD5)
inactive: nilotinib -0.014 | [1] 0 | dasatinib -0.084 | [2] -0.014 | [3] -0.012 | quisinostat -0.038 | tipifarnib -0.014 | [4] 0.099 | [5] 0.027 | [6] -0.079 | [7] -0.012 | silmitasertib 0.023 | [8] 0.052 | entospletinib 0.013
active: vorinostat -0.409

OAT (UniProt P04181)
inactive: nilotinib 0.012 | [1] -0.038 | dasatinib -0.033 | [2] 0.003 | [3] -0.012 | quisinostat -0.002 | tipifarnib 0.024 | [4] -0.01 | [5] 0.019 | [6] -0.018 | [7] 0.053 | vorinostat 0.168 | silmitasertib -0.006 | [8] 0.042 | entospletinib 0.029

Random excerpt: 2 records from the list, in no set order.
NVL (UniProt O15381)
inactive: nilotinib -0.078 | [1] -0.044 | dasatinib -0.047 | [2] 0.043 | [3] 0.007 | quisinostat -0.099 | tipifarnib 0.034 | [4] 0.025 | [5] -0.033 | [6] 0.031 | [7] 0.119 | vorinostat -0.122 | silmitasertib 0.091 | [8] 0.001

PANK4 (UniProt Q9NVE7)
active: vorinostat -0.423
inactive: nilotinib 0.028 | [1] -0.006 | dasatinib -0.086 | [2] -0.006 | [3] 0.003 | quisinostat -0.054 | tipifarnib 0.009 | [4] 0.038 | [5] -0.003 | [6] -0.045 | [7] 0.012 | silmitasertib -0.03 | [8] 0.055 | entospletinib 0.035

(further entries)

PAFAH1B2 (UniProt P68402)
inactive: nilotinib -0.045 | [1] 0.051 | dasatinib 0.004 | [2] -0.008 | [3] -0.035 | quisinostat -0.052 | tipifarnib -0.016 | [4] 0.013 | [5] 0.055 | [6] -0.015 | [7] -0.002 | vorinostat 0.026 | silmitasertib -0.031 | [8] -0.005 | entospletinib -0.074

P3H1 (UniProt Q32P28)
inactive: nilotinib 0.016 | [1] 0.006 | dasatinib 0.013 | [2] -0.001 | [3] -0.005 | quisinostat 0.029 | tipifarnib -0.028 | [4] 0.002 | [5] -0.006 | [6] -0.001 | [7] -0.019 | vorinostat 0.052 | silmitasertib 0.021 | [8] 0.01 | entospletinib 0

ORC4 (UniProt O43929)
inactive: nilotinib 0.051 | [1] 0.024 | dasatinib -0.078 | [2] -0.023 | [3] 0.036 | quisinostat -0.056 | tipifarnib -0.007 | [4] 0.076 | [5] 0.005 | [6] 0.017 | [7] 0.073 | vorinostat -0.178 | silmitasertib 0.059 | [8] 0.01 | entospletinib -0.013

PAK2 (UniProt Q13177)
inactive: nilotinib -0.011 | [1] 0.031 | dasatinib 0.023 | [2] 0.006 | [3] 0.002 | quisinostat 0.008 | tipifarnib 0.031 | [4] -0.015 | [5] -0.017 | [6] 0.029 | [7] -0.004 | vorinostat 0.1 | silmitasertib -0.013 | [8] -0.02 | entospletinib 0.002

OARD1 (UniProt Q9Y530)
active: vorinostat -0.456
inactive: nilotinib 0.015 | [1] 0.016 | dasatinib -0.031 | [2] 0.005 | [3] 0.071 | quisinostat -0.004 | tipifarnib -0.014 | [4] 0.036 | [5] -0.009 | [6] -0.006 | [7] -0.021 | silmitasertib 0.051 | [8] 0.02 | entospletinib 0.024
